Data from article PMC10425332.
For at least one entry, the source does not settle the construct or the ends of the probe. At least one verdict was read from the data and is not stated in words by the source.

Sequences of proteins named here, by UniProt entry; tags and fusion partners are left off. Residues count along the entry.
UniProt P01127, 82-190: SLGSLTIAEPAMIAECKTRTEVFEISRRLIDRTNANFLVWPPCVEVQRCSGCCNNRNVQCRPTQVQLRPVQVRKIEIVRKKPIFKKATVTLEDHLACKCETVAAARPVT

Molecular target: PDGF-BB (UniProt P01127)
Assay: PAGE and fluorescence (release of strand D)
Settings: Mg2+, indirect read-out; complexes annealed in 1x TAE/Mg2+ buffer, DNA complex about 0.5-0.6 uM; thrombin trigger 2 h at room temperature (cell experiments); commercial protein; label: C T-BHQ1, D 5'-FAM (fluorescence assay); folded or branched DNA

“AATGGTCCTATGATTCCGTTTTTTTTTTTTGTCACTAGCTACTAGGTAGCTAGTGACGTTATTTTTTTTATGAGAGAGAGTGTGTCC / TAACGTCACTAGCTACCTTTTTTTTTTTTTTTTTTTTTTTTTTTTTTTTTTTTTTTT / GGACACACTCTCTCTCATTTTCAGGCTACGGCACGTAGAGCATCACCATGATCCTG / CAGGCTACGGCACGTAGAGCATCACCATGATCCTGTTTCGGAATCATAGGACCATT [complex-PDGF (C, D, A3, B3; PDGF aptamer on A3 and B3)]”: binds.
